Experimental data as given in publication PMC3572160.
These are yes or no findings as the source states them, for the method shown. In cells and extracts the contact can be indirect. Some binding calls cover weakened binding; strength is not graded here.

The chains behind the UniProt entries cited, without tags or fusion partners.
UniProt Q07157: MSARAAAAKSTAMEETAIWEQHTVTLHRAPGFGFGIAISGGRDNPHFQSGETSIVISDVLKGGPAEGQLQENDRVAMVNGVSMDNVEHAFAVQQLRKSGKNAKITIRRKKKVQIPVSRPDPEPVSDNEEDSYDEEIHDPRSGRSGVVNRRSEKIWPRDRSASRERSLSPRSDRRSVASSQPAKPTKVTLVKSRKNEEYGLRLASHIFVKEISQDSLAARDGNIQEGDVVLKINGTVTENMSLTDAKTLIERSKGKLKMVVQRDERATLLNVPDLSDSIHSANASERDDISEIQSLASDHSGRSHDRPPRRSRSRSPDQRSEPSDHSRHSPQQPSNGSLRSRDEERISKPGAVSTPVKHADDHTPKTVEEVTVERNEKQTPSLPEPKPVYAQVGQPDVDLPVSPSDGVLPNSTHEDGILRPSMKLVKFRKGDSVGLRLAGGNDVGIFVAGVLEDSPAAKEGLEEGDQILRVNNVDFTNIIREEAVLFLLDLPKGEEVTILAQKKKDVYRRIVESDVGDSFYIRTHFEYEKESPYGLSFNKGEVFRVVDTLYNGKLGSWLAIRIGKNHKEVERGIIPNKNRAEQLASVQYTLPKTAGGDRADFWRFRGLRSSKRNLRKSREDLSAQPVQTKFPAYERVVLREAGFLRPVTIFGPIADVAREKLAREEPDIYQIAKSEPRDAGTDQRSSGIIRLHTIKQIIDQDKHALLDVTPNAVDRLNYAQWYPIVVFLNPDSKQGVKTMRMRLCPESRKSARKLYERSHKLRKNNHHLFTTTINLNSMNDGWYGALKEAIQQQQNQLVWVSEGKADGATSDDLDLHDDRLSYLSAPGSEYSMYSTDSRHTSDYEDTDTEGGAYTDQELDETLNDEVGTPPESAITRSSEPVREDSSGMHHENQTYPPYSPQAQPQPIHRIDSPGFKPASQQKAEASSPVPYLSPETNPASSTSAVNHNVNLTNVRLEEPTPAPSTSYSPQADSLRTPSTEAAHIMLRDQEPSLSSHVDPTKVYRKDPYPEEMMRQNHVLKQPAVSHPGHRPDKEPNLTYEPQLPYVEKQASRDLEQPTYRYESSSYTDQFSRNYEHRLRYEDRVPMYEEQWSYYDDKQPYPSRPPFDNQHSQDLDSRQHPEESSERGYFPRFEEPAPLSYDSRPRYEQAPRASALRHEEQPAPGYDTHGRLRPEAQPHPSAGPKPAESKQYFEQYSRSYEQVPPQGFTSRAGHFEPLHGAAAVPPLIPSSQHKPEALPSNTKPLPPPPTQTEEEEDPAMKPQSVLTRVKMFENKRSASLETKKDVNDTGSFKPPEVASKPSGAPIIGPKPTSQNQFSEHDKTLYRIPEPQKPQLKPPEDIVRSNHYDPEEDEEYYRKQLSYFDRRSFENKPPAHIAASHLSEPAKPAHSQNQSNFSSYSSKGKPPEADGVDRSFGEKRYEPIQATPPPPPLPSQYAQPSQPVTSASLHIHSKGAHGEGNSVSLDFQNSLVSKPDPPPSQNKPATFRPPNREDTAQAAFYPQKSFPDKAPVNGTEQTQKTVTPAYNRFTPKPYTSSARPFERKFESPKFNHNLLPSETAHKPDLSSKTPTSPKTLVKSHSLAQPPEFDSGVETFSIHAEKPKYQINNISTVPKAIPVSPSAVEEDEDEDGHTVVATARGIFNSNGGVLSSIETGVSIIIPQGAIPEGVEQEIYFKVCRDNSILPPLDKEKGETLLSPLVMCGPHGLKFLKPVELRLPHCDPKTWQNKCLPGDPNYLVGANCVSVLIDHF
UniProt P35222: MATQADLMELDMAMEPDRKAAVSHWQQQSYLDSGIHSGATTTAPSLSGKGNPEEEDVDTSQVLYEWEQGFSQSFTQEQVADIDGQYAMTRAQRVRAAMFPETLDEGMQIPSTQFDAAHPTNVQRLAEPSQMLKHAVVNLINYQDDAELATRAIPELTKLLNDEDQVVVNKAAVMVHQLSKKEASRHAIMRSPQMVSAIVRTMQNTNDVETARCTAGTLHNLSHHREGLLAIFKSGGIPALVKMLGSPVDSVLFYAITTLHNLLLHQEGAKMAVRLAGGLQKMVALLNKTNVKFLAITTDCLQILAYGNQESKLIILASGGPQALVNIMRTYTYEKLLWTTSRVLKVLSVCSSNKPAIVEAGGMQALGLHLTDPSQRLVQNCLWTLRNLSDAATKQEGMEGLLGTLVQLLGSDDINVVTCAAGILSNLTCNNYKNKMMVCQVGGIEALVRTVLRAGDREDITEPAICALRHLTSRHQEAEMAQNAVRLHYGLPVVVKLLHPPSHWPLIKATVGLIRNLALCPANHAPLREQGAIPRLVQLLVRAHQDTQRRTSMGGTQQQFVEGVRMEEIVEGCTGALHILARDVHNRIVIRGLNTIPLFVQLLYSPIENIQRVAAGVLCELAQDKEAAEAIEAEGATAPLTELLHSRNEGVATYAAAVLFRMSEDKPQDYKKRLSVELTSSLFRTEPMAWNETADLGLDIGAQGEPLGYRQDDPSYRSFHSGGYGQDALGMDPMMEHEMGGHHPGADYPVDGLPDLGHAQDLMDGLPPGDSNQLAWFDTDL

Molecular target: ZO-1 (human (endogenous in BMVEC)) (UniProt Q07157)
Test: co-IP; BMVEC monolayers without or with escalating doses (1-10 µM) of SB216763; fractions with 500 µg total protein precleared with protein A-Sepharose, incubated with antibodies to ZO-1 at 4°C overnight, washed 5 times with RIPA buffer; immunoblotted for β-catenin

- binding: binds
Substance: β-catenin (from UniProt P35222 1-781)
